This is an account of results in paper doi:10.1101/822965.

Amino acid sequences for entries named in this document (tags omitted). A change or cut given only in a name is not applied to a line headed by its entry.
UniProt P46379: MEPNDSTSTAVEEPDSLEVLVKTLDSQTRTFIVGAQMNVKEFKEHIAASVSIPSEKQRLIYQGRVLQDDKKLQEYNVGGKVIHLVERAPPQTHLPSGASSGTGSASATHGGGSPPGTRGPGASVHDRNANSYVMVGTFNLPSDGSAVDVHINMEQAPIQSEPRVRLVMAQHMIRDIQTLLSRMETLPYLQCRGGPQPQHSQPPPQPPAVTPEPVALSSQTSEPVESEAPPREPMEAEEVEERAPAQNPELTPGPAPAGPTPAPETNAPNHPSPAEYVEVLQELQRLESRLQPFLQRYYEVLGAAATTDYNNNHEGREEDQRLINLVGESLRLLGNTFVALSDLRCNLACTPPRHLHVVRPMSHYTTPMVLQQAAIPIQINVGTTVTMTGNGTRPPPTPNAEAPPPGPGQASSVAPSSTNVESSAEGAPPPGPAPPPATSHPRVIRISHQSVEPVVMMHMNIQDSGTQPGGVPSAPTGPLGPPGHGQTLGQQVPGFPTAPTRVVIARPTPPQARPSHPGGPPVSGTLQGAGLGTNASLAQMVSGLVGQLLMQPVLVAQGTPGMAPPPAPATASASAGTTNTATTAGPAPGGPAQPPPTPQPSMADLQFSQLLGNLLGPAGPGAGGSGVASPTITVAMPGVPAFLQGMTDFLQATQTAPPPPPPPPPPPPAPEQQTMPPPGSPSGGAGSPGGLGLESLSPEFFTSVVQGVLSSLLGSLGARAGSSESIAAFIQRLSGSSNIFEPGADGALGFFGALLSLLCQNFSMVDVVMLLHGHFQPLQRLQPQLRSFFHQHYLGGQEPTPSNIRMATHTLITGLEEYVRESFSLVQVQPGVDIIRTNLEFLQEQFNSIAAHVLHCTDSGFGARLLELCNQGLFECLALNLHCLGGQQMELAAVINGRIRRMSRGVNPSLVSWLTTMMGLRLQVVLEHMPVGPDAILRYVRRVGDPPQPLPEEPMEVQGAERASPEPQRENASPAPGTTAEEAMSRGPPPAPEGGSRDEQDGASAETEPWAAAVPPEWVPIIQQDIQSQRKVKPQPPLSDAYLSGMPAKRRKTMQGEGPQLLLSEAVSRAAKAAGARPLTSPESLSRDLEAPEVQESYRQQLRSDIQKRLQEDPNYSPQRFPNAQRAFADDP
UniProt P18850: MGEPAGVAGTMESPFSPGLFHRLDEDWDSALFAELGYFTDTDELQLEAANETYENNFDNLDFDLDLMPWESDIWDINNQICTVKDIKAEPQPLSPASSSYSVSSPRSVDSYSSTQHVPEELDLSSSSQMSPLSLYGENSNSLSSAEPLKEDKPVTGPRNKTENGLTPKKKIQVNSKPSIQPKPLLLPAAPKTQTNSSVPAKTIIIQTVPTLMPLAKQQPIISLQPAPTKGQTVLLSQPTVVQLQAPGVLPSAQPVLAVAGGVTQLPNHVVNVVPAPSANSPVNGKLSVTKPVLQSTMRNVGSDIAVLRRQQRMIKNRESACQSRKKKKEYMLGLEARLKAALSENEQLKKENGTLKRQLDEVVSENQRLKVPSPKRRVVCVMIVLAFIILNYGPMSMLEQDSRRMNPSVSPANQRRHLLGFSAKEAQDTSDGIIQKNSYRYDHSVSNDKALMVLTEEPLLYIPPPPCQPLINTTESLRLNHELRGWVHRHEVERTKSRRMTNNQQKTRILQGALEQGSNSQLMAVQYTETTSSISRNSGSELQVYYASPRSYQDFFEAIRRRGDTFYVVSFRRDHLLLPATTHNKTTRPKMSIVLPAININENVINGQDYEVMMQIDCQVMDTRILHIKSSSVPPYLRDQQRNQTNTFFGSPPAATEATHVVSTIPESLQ

Results are given in words; binding and its absence hold for the method and conditions named. In cells and extracts the contact can be indirect. Binding calls can cover weak binding; strength is not graded here.

In this experiment the target is BAG6 (BCL2-associated athanogene 6) (UniProt P46379). The experiment in a line: co-IP.

For ATF6 Y567A (from UniProt P18850), the binding entry is on record as “binds”.
